{"source": "paper PMC3096570", "key": {"[1]": {"biological_target": "T1, C/EBPδ (UniProt Q03484)", "T1 sequence (looked up, limits assumed)": "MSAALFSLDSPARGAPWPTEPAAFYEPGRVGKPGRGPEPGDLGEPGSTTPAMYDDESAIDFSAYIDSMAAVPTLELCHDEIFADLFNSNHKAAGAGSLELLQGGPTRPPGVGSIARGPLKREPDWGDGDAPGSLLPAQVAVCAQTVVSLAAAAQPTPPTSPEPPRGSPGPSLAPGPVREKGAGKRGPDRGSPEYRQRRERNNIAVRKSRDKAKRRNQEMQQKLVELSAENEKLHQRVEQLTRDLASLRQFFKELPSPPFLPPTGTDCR", "test": "EMSA with anti-C/EBPδ (nuclear extract)", "settings": "EMSA: 5 μg nuclear extract, antibody 30 min at room temperature before probe, 5% polyacrylamide gel, buffer not given, protein in an extract, label: 32P (T4 PNK)"}, "[2]": {"biological_target": "T1, C/EBPδ", "test": "streptavidin-agarose pull-down, western blot (nuclear extract)", "settings": "pull-down: 150 μg nuclear extract, 4 μg dsDNA, 500 μl PBS, 1 mM EDTA, 1 mM DTT, protease inhibitors, 2 h at room temperature, protein in an extract"}}, "note": "Construct, isoform or probe ends are uncertain for at least one entry. At least one result comes from cells or an extract, where the contact may be indirect. For some assays here: Weaker means in comparison with the reference protein, sequence or condition of that experiment. Where a protein sequence is shown, tags need not be part of it. For some assays here: Whether high values mean tight binding is not given here for every scale."}
{"sequence": "TGCAGATTGCGCAATCTGCA (double strand) [C/EBP consensus oligonucleotide]", "values": [{"measurement": "binding result", "setting": "[1]; extract of IL-1β-treated cells (10 ng/ml, 3 h)", "result": "binds"}, {"measurement": "binding signal (% decrease vs IL-1β alone)", "setting": "[1]; extract of cells treated with IL-1β + fibril-enriched Aβ (10 μM), reflects lower C/EBPδ protein level", "result": 89}]}
{"sequence": "AGTTGAGGGGACTTTCCCAGGC (double strand) [κB oligonucleotide]", "values": [{"measurement": "binding result", "setting": "[2]; extract of IL-1β-treated cells, binding increased vs untreated", "result": "binds"}, {"measurement": "binding result", "setting": "[2]; extract of cells treated with IL-1β + fibril-enriched Aβ, IL-1β-induced binding completely blocked", "result": "binds more weakly"}, {"measurement": "binding result", "setting": "[2]; extract of cells treated with IL-1β + oligomer-enriched Aβ, decreased to same extent as with fibrils", "result": "binds more weakly"}]}
